Data taken from patent US9278138B2, “Peptide linkers for effective multivalent peptide binding” (E. I. DU PONT DE NEMOURS AND COMPANY, priority 2008, dated 2016).
Part of at least one peptide drawing is inferred or uncertain, most often the ends. Residues, ends and D or L forms follow the SMILES beside them. No end group written: not given here.

Test: Surface Plasmon Resonance binding to spin-coated cellulose acetate surface (Biacore X100)
Conditions: for kd: from binding kinetics curve fitting; for Kd: read-out: KD(M) from kinetics; for fold improvement on binding affinity compared to CA4 monomer: based on KD of Table 10
Description: Binding affinity of CA4 peptide and CA4 multimers were assessed by Surface Plasmon Resonance (SPR). The CA surface was prepared by spin-coating 0.75% CA solution in mixed cyclohexanone/methyl ethyl ketone (1/9 weight ratio) solvent at 2000 rpm for 1 minute twice on the Biacore bare gold sensor chip (Biacore Inc., Catalogue numberBR-1004-05; General Electric Corp., Fairfield, Conn.), followed by 80° C. annealing for 15 minutes. The CA resin used was CA-398-10 from Eastman Chemical Company (Kingsport, Tenn.), and the solution prepared was filtered with 0.2 μm PTFE membrane before use. The thickness of the spin-coated CA thin film was measured by Atomic Force Microscope (AFM) to be 26-30 nm.
Binding of each peptide to the CA surface was tested at various concentration ranges in Tris Buffered Saline (TBS, 25 mM Tris, 150 mM NaCl, pH 7.5), using Biacore X100 system. Each peptide solution sample was injected for 2 minutes at flow rate of 30 μL/minute followed by 10 minutes buffer wash. Surface regeneration and stabilization procedure was performed after each peptide solution injection as such: 90 seconds of 1% SLES (sodium laureth sulfate) solution injection and 90 seconds of 2 M NaCl solution injection at flow rate of 10 μL/minute, and 25 minutes stabilization in TBS. For the samples of each peptide at different concentrations, a new sensor chip flow cell was used.
Because a monolithic CA surface made from spin-coating on the whole sensor chip was used as ligand for peptides, no ligand-free reference cell was possible to have in these tests in order to take bulk response out as in conventional SPR protein assay using Biacore instruments. Bulk response refers to the SPR response to the refractive index difference between the sample solution and the running buffer, but not caused by sample binding to the surface. Bulk response completely disappears once sample injection is finished and buffer wash starts. So the response units (RU) remained right after injection was caused by binding and proportional to the mass of peptide bound to the surface, and was named as “net RU” in binding data. […] Typically, association and dissociation rate constant (ka and kd) can be obtained from binding kinetics curve fitting, and dissociation constant (KD). can be determined from the ratio of dissociation rate constant to association rate constant. The use of short linkers (3-6 amino acid residues) in CA4 dimer 1, CA4 dimer 2 and CA4 trimer gave 5 fold improvement on binding affinity compared to CA4 monomer. The use of long rigid linker (TonB linker) in CA4 dimer 4 gave 50 fold improvement on binding affinity compared to CA4 monomer. […] As control, the TonB linker peptide was tested in the same way.

Compound	kd (TBS pH 7.5)	Kd (TBS pH 7.5, ratio of kd to ka)	fold improvement on binding affinity compared to CA4 monomer	binding affinity to CA surface (in words) (SPR)	KD(M) from kinetics (TBS pH 7.5, ratio of kd to ka)
CC[C@H](C)[C@H](NC(=O)[C@H](CCC(N)=O)NC(=O)[C@@H]1CCCN1C(=O)CNC(=O)[C@@H](NC(=O)[C@H](CCC(=O)O)NC(=O)[C@H](CC(=O)O)NC(=O)[C@H](CO)NC(=O)CNC(=O)CNC(=O)CNC(=O)[C@H](Cc1c[nH]c2ccccc12)NC(=O)[C@@H](NC(=O)[C@@H]1CCCN1C(=O)[C@H](CCCNC(=N)N)NC(=O)[C@H](CCCNC(=N)N)NC(=O)[C@H](Cc1c[nH]cn1)NC(=O)[C@@H]1CCCN1C(=O)[C@@H](NC(=O)[C@H](CCC(N)=O)NC(=O)[C@@H]1CCCN1C(=O)CNC(=O)[C@@H](NC(=O)[C@H](CCC(=O)O)NC(=O)[C@H](CC(=O)O)NC(=O)[C@@H](N)CO)[C@@H](C)O)[C@@H](C)CC)[C@@H](C)O)[C@@H](C)O)C(=O)N1CCC[C@H]1C(=O)N[C@@H](Cc1c[nH]cn1)C(=O)N[C@@H](CCCNC(=N)N)C(=O)N[C@@H](CCCNC(=N)N)C(=O)N1CCC[C@H]1C(=O)N[C@H](C(=O)N[C@@H](Cc1c[nH]c2ccccc12)C(=O)O)[C@@H](C)O [CA4 dimer 1] (H-SDETGPQIPHRRPTWGGGSDETGPQIPHRRPTW-OH)	0.00095 s⁻¹	2.1e-05 M	5 fold		
CC[C@H](C)[C@H](NC(=O)[C@H](CCC(N)=O)NC(=O)[C@@H]1CCCN1C(=O)CNC(=O)[C@@H](NC(=O)[C@H](CCC(=O)O)NC(=O)[C@H](CC(=O)O)NC(=O)[C@H](CO)NC(=O)CNC(=O)CNC(=O)CNC(=O)[C@@H]1CCCN1C(=O)[C@H](CO)NC(=O)CNC(=O)[C@H](Cc1c[nH]c2ccccc12)NC(=O)[C@@H](NC(=O)[C@@H]1CCCN1C(=O)[C@H](CCCNC(=N)N)NC(=O)[C@H](CCCNC(=N)N)NC(=O)[C@H](Cc1c[nH]cn1)NC(=O)[C@@H]1CCCN1C(=O)[C@@H](NC(=O)[C@H](CCC(N)=O)NC(=O)[C@@H]1CCCN1C(=O)CNC(=O)[C@@H](NC(=O)[C@H](CCC(=O)O)NC(=O)[C@H](CC(=O)O)NC(=O)[C@@H](N)CO)[C@@H](C)O)[C@@H](C)CC)[C@@H](C)O)[C@@H](C)O)C(=O)N1CCC[C@H]1C(=O)N[C@@H](Cc1c[nH]cn1)C(=O)N[C@@H](CCCNC(=N)N)C(=O)N[C@@H](CCCNC(=N)N)C(=O)N1CCC[C@H]1C(=O)N[C@H](C(=O)N[C@@H](Cc1c[nH]c2ccccc12)C(=O)O)[C@@H](C)O [CA4 dimer 2] (H-SDETGPQIPHRRPTWGSPGGGSDETGPQIPHRRPTW-OH)	0.00071 s⁻¹	2.7e-05 M	5 fold		
CC[C@H](C)[C@H](NC(=O)[C@H](CCC(N)=O)NC(=O)[C@@H]1CCCN1C(=O)CNC(=O)[C@@H](NC(=O)[C@H](CCC(=O)O)NC(=O)[C@H](CC(=O)O)NC(=O)[C@H](CO)NC(=O)CNC(=O)CNC(=O)[C@@H](NC(=O)CNC(=O)CNC(=O)CNC(=O)[C@@H]1CCCN1C(=O)[C@H](CO)NC(=O)CNC(=O)[C@H](Cc1c[nH]c2ccccc12)NC(=O)[C@@H](NC(=O)[C@@H]1CCCN1C(=O)[C@H](CCCNC(=N)N)NC(=O)[C@H](CCCNC(=N)N)NC(=O)[C@H](Cc1c[nH]cn1)NC(=O)[C@@H]1CCCN1C(=O)[C@@H](NC(=O)[C@H](CCC(N)=O)NC(=O)[C@@H]1CCCN1C(=O)CNC(=O)[C@@H](NC(=O)[C@H](CCC(=O)O)NC(=O)[C@H](CC(=O)O)NC(=O)[C@@H](N)CO)[C@@H](C)O)[C@@H](C)CC)[C@@H](C)O)[C@@H](C)O)[C@@H](C)O)C(=O)N1CCC[C@H]1C(=O)N[C@@H](Cc1c[nH]cn1)C(=O)N[C@@H](CCCNC(=N)N)C(=O)N[C@@H](CCCNC(=N)N)C(=O)N1CCC[C@H]1C(=O)N[C@H](C(=O)N[C@@H](Cc1c[nH]c2ccccc12)C(=O)O)[C@@H](C)O [CA4 dimer 3] (H-SDETGPQIPHRRPTWGSPGGGTGGSDETGPQIPHRRPTW-OH)				detrimental effect	undetectable
CC[C@H](C)[C@H](NC(=O)[C@H](CCC(N)=O)NC(=O)[C@@H]1CCCN1C(=O)CNC(=O)[C@@H](NC(=O)[C@H](CCC(=O)O)NC(=O)[C@H](CC(=O)O)NC(=O)[C@@H](N)CO)[C@@H](C)O)C(=O)N1CCC[C@H]1C(=O)N[C@@H](Cc1c[nH]cn1)C(=O)N[C@@H](CCCNC(=N)N)C(=O)N[C@@H](CCCNC(=N)N)C(=O)N1CCC[C@H]1C(=O)N[C@H](C(=O)N[C@@H](Cc1c[nH]c2ccccc12)C(=O)O)[C@@H](C)O [CA4, SDETGPQIPHRRPTW] (H-SDETGPQIPHRRPTW-OH)	0.0012 s⁻¹	0.0001 M			
SDETGPQIPHRRPTWGGGSDETGPQIPHRRPTWGGGSDETGPQIPHRRPTW [CA4 trimer]	0.00079 s⁻¹	3.4e-05 M	5 fold		
